Paper PMC5380948
Where two headings read alike, the source gives them in different places. These are yes or no findings as the source states them, for the method shown. In cells and extracts the contact can be indirect. Some entries that bind do so weakly or less than the wild type. Sequences can lack the tags named with a protein.

Chains of the proteins cited; added tags and fusions are not shown.
UniProt Q04206: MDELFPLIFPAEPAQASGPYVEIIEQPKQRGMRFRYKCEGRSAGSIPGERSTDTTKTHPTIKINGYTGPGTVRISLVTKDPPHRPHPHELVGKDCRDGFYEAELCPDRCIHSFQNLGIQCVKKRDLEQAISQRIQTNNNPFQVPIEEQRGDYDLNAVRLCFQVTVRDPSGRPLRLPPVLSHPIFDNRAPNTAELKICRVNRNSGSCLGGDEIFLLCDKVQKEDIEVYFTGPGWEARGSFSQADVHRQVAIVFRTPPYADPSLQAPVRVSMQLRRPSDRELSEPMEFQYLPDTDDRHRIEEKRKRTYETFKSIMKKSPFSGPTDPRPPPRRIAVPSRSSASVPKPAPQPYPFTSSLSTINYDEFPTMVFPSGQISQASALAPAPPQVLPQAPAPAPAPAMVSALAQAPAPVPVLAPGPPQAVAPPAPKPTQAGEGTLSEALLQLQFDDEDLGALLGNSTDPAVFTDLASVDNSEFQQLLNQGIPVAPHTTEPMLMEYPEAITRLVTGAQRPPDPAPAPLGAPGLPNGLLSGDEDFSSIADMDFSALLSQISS

T1: c-Myc-tagged MKRN2 (makorin ring finger protein 2) (mouse) (UniProt Q9ERV1)
T1 sequence: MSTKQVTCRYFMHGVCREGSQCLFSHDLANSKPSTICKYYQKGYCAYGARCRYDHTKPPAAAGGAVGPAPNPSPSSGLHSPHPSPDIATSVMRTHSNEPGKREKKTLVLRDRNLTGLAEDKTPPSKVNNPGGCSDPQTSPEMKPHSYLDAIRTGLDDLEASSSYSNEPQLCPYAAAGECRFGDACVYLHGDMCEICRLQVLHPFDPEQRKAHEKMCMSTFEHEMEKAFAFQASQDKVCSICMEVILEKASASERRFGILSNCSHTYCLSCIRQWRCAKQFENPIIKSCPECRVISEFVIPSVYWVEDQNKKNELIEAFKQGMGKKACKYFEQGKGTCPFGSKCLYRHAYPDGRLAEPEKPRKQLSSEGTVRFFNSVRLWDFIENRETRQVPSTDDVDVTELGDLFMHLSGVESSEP

B1: His-tagged PDLIM2 (protein, UniProt Q8R1G6 1-349)
chain: MALTVDVAGPAPWGFRISGGRDFHTPIIVTKVTERGKAEAADLRPGDIIVAINGQSAENMLHAEAQSKIRQSASPLRLQLDRSQTASPGQTNGEGSLEVLATRFQGSLRTHRDSQSSQRSACFSPVSLSPRPCSPFSTPPPTSPVALSKEDMIGCSFQSLTHSPGLAAAHHLTYPGHPTSQQAGHSSPSDSAVRVLLHSPGRPSSPRFSSLDLEEDSEVFKMLQENRQGRAAPRQSSSFRLLQEALEAEERGGTPAFVPSSLSSQASLPTSRALATPPKLHTCEKCSVNISNQAVRIQEGRYRHPGCYTCADCGLNLKMRGHFWVGNELYCEKHARQRYSMPGTLNSRA

What was measured:
[1] = target: T1, c-Myc-tagged MKRN2 (makorin ring finger protein 2) (mouse); assay: co-IP; 293T cells co-transfected; lysed in 0.5% NP-40, 250 mM NaCl, 10 mM Tris pH 8.0; precipitated with anti-c-Myc antibody-conjugated agarose, washed four times; immunoblot with anti-His or anti-FLAG
[2] = target: T1, c-Myc-tagged MKRN2 (makorin ring finger protein 2) (mouse); assay: as above; remark: listed apart in the source

| Molecule | binding [1] | binding [2] |
| --- | --- | --- |
| FLAG-tagged p65 subunit of NF-κB (from UniProt Q04206 1-551) | binds |  |
| B1 |  | binds |
